The supplement of paper PMC11732987, “Enantioselective OTUD7B fragment discovery through chemoproteomics screening and high-throughput optimisation” (Communications Chemistry, 2025)
The list shows a part of the results. The data scatter; read single values as rough.

Sequences of proteins named here, by UniProt entry; tags and fusion partners are left off. A change or cut given only in a name is not applied to a line headed by its entry. Residues count along the entry.
UniProt P33981: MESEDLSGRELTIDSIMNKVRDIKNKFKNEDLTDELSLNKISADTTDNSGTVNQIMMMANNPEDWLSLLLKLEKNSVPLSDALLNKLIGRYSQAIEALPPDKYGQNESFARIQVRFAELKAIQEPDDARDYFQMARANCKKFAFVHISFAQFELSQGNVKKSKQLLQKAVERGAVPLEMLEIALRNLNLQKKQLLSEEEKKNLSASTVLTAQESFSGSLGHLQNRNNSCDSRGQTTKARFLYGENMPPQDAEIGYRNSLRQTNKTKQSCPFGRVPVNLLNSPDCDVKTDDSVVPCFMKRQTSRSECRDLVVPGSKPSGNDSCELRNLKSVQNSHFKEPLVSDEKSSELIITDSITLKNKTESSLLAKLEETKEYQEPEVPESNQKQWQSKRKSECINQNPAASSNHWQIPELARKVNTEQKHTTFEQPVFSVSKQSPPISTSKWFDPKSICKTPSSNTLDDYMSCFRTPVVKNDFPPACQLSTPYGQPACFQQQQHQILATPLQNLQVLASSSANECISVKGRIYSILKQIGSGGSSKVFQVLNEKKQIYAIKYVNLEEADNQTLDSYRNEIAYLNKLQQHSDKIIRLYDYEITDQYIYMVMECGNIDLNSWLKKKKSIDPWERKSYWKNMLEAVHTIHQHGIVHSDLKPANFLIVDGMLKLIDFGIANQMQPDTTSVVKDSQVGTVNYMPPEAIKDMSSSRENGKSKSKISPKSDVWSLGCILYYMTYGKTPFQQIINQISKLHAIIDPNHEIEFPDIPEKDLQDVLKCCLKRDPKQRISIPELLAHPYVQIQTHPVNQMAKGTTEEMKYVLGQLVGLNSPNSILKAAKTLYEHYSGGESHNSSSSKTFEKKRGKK
UniProt Q8IWV7: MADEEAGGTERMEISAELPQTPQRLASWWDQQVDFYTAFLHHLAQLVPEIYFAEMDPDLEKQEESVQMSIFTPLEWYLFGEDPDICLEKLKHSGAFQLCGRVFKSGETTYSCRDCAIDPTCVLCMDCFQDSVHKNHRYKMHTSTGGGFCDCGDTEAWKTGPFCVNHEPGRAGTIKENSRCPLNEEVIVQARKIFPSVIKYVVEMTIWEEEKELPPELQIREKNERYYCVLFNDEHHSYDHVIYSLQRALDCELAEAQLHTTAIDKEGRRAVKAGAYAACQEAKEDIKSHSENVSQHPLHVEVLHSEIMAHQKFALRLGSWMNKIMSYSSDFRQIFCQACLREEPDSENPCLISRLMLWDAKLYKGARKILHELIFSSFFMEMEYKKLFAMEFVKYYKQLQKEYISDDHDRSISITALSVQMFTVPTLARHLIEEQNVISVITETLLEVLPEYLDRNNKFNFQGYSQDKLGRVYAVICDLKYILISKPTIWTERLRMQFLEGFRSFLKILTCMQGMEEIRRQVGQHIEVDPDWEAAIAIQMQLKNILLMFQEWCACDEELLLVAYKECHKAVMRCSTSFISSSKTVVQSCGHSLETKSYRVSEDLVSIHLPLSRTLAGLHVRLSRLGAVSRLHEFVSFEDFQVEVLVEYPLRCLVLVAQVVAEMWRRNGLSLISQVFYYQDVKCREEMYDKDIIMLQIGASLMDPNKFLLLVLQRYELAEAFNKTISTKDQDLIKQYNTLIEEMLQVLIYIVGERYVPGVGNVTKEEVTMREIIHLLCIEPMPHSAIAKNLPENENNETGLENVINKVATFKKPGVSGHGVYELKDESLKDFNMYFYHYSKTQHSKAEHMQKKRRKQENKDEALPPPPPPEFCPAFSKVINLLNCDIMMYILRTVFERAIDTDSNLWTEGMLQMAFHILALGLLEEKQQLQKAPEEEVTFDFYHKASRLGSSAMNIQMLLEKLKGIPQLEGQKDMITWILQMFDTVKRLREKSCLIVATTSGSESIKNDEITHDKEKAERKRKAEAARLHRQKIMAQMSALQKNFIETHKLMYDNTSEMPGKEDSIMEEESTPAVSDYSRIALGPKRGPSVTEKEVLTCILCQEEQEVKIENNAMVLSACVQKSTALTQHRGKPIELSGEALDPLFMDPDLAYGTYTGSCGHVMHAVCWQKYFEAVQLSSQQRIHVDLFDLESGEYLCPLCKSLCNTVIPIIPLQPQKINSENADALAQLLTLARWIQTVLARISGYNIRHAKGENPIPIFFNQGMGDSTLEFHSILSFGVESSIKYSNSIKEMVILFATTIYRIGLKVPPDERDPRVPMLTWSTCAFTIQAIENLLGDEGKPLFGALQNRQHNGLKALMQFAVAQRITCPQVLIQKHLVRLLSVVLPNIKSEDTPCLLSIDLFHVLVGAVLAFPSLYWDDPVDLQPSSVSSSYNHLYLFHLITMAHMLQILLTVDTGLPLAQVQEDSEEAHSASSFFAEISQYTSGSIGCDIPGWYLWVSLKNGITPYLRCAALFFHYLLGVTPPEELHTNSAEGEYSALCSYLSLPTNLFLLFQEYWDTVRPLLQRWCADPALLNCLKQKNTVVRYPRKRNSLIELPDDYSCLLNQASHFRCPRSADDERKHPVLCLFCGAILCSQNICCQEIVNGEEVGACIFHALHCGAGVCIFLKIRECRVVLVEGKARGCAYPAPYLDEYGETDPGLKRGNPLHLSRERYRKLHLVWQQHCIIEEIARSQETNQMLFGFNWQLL
UniProt Q7Z2T5: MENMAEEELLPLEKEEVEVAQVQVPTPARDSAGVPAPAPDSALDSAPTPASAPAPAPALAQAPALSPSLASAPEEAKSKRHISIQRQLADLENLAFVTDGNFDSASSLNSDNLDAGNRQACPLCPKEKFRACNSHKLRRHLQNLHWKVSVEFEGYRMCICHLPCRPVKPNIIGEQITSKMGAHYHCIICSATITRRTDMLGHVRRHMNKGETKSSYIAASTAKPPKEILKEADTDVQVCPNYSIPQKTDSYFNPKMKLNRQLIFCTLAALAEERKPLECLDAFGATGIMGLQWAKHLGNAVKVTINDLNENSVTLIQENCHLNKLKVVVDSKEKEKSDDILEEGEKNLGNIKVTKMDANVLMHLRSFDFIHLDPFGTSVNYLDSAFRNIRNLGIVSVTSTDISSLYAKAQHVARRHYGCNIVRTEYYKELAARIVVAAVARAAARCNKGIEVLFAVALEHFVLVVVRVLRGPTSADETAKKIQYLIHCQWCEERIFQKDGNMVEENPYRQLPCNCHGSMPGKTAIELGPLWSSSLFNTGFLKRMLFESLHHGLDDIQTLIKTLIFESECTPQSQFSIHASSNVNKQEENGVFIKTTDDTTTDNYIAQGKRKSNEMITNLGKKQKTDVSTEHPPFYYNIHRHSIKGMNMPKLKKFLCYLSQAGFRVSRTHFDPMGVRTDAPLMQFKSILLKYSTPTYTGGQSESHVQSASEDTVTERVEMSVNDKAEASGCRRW
UniProt Q6PF06: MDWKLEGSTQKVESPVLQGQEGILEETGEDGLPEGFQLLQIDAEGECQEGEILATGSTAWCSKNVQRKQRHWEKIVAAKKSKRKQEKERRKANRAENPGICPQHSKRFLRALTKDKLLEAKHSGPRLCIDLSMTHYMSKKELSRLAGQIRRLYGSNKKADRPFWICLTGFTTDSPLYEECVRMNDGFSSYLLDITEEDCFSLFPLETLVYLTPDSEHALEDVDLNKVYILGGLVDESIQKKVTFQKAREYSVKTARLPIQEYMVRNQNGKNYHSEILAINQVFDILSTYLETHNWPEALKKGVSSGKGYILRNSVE
UniProt Q5R3I4: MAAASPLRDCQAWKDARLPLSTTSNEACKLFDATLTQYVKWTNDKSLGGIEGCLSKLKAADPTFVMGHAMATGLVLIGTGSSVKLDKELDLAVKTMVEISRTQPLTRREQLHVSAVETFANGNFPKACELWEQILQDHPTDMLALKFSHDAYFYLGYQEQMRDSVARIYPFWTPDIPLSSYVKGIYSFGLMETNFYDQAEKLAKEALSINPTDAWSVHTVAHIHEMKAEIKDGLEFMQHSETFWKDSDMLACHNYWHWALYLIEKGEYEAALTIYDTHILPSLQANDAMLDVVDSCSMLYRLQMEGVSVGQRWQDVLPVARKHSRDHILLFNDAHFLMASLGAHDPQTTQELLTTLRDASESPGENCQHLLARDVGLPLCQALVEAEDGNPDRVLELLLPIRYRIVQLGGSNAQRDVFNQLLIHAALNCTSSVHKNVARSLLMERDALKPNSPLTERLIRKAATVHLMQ
UniProt Q5TAX3, 1226-1245: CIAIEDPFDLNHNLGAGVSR
UniProt Q15631: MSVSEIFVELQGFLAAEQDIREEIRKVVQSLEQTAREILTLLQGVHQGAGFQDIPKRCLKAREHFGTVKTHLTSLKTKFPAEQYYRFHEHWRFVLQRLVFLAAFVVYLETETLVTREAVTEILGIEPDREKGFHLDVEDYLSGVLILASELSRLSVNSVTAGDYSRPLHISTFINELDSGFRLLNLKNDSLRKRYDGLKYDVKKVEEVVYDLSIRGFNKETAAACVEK
UniProt Q96RT7, whole entry, looked up: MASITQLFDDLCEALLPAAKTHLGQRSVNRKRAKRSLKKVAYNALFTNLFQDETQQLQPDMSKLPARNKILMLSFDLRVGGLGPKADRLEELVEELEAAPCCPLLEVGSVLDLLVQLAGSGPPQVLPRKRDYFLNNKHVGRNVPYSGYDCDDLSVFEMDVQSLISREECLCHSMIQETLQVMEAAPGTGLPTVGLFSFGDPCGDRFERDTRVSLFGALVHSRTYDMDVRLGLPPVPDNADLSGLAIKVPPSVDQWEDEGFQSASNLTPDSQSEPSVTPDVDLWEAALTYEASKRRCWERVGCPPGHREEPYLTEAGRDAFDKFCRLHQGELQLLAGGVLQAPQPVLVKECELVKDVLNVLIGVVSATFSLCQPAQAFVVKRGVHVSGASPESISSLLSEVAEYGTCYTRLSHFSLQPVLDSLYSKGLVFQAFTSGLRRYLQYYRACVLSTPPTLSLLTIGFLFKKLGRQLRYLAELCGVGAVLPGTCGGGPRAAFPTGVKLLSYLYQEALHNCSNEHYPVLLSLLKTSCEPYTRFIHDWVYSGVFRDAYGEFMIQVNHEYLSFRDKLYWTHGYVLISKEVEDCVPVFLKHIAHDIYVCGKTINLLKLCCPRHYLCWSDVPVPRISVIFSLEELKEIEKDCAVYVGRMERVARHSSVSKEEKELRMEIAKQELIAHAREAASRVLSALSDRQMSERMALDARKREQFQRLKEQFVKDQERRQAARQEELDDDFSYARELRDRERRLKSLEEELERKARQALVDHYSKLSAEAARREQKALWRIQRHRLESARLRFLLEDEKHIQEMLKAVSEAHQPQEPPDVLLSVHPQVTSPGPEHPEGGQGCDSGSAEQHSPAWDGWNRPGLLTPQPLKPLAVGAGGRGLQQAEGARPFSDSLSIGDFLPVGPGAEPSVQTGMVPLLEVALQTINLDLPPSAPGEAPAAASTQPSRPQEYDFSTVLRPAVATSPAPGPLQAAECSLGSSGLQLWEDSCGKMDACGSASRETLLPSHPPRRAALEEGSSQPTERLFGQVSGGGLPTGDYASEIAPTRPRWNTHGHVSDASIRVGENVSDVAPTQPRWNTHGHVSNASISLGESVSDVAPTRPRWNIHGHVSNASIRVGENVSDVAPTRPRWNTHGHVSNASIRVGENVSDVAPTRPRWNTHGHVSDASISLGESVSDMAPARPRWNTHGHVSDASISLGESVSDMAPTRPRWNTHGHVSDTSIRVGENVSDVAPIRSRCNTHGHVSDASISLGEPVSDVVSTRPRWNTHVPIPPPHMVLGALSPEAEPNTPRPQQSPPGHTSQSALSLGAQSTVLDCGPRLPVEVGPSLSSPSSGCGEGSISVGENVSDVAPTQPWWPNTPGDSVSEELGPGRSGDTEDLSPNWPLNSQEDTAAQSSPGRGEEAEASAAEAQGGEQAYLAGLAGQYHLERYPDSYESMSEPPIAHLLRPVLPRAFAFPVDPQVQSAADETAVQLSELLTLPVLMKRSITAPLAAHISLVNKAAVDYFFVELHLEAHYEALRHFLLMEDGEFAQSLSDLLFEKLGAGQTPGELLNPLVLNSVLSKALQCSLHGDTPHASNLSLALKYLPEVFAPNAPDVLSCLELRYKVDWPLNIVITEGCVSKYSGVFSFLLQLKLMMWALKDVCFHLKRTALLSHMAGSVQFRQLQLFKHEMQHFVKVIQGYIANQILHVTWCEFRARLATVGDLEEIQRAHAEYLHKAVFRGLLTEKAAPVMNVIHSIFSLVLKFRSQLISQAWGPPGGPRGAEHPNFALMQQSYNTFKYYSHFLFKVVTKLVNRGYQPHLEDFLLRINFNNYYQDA
UniProt P43897: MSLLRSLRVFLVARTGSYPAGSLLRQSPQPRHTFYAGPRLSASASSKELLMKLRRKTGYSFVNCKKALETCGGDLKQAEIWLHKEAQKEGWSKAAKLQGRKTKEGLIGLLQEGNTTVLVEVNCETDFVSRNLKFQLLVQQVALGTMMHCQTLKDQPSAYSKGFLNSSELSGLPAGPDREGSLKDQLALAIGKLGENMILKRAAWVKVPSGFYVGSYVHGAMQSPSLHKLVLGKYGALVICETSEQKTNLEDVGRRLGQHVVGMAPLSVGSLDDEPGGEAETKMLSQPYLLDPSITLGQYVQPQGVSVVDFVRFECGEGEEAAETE

Compound: ClCC(=O)N[C@@H]1CCCc2ccccc12
Experiment: log2 mean competition ratio of IA-DTB cysteine labelling (DMSO/compound) (log2 ratio); higher = stronger cysteine engagement by compound
Settings: 50 µM; treatment time: 4 h; cell line lysate: HEK293T
Procedure: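 IA-DTB competitive cysteine chemoproteomics in HEK293T RIPA lysate. Lysates were treated with compound 29 or 30 at 50 or 200 µM for 4 h, then IA-DTB (500 µM, 1 h), trypsin-digested, NeutrAvidin-enriched and analysed by diaPASEF. Competition ratio = intensity DMSO / intensity compound (n=4 treated, n=64 DMSO); binding: mean log2 CR ≥ 1 and p ≤ 0.05 plus QC filters. Target is the cysteine site.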

Row | Target | log2 mean competition ratio
1 | TTK C269 (UniProt P33981) | -0.222
2 | TTF2 C754 (UniProt Q9UNY4) | -0.2
3 | UBR1 C279 (UniProt Q8IWV7) | -0.0275
4 | TTC1 C178 (UniProt Q99614) | -0.183
5 | TTC28 C2077 (UniProt Q96AY4) | 0.0362
6 | TUBA1B C347 (UniProt P68363) | 0.178
7 | TUBB4B C303 (UniProt P68371) | -0.026
8 | UBN2 C515 (UniProt Q6ZU65) | 0.0264
9 | UBAC1 C322 (UniProt Q9BSL1) | -0.0258
10 | TRMT1L C239 (UniProt Q7Z2T5) | -0.249
11 | TRMT10B C101 (UniProt Q6PF06) | 0.158
12 | UBE2I C43 | 0.34
13 | TTC38 C367 (UniProt Q5R3I4) | -0.047
14 | TUT4 C852 (UniProt Q5TAX3) | -0.23
15 | TUT4 C1226 (UniProt Q5TAX3) | -0.105
16 | TYK2 C736 (UniProt P29597) | -0.0785
17 | UBR4 C779 (UniProt Q5T4S7) | -0.0151
18 | TSN C225 (UniProt Q15631) | -0.0508
19 | TUBGCP6 C995 (UniProt Q96RT7) | -0.0189
20 | TTC13 C110 (UniProt Q8NBP0) | -0.06
21 | TTK C322 (UniProt P33981) | -0.161
22 | TSFM C240 (UniProt P43897) | 0.249
23 | TSEN15 C13 | -0.254
24 | TRMT1L C419 (UniProt Q7Z2T5) | 0.248
25 | TTC1 C28 (UniProt Q99614) | -0.258
26 | TUBB4B C12 (UniProt P68371) | 0.175
27 | UBAP2 C104 | -0.156
28 | TUSC3 C123 (UniProt Q13454) | -0.22

Given in markdown: entries from further up.

| Row | Target | log2 mean competition ratio |
| --- | --- | --- |
| 13 | TTC38 C367 (UniProt Q5R3I4) | -0.047 |
| 14 | TUT4 C852 (UniProt Q5TAX3) | -0.23 |
